Laboratory results published in PubChem BioAssay AID1671190 (National Center for Advancing Translational Sciences (NCATS), 2021).
Several values for one entry are separate records, joined by “and”; a condition that tells them apart may be missing. Identical values can stand only once. The campaign covered roughly 580,000 compounds. About 6,100 (1.1%) were called active. The inconclusive results got no clear call from the source; some entries with a clear call stand among them for comparison. Calls follow the shape of the dose curve; as a rule, active = well fitted inhibition curve with a large enough effect; inconclusive = small, poorly fitted or top-dose-only effect, or another doubt; inactive = no such curve, though single readings can be large or run the other way. Where the call is inconclusive, the potency comes from a doubtful curve fit.

The chains behind the UniProt entries cited, without tags or fusion partners. Where a name states a change or a piece, a line headed by the entry shows the natural chain unless it says otherwise.
UniProt P18054: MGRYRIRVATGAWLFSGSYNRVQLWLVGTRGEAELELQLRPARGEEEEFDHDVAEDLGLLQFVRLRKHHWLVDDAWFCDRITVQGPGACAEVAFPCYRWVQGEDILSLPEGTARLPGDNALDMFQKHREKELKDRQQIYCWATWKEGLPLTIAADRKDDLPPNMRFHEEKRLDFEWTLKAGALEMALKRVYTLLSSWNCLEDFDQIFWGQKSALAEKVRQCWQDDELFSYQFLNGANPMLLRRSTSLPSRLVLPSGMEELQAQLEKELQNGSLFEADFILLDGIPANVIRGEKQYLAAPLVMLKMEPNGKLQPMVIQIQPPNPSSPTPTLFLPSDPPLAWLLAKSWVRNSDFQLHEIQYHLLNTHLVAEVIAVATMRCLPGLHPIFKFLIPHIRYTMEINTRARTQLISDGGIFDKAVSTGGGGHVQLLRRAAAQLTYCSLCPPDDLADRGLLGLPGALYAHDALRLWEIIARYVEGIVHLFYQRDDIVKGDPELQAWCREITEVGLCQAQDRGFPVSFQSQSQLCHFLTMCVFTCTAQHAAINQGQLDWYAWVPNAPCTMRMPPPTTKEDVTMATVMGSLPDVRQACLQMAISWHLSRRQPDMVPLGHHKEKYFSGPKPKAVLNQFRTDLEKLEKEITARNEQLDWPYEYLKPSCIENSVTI

These compounds were tested against Polyunsaturated fatty acid lipoxygenase ALOX12 (Homo sapiens) (UniProt P18054) (assay: Primary qHTS assay for inhibitors of human arachidonate 12S-lipoxygenase (ALOX12): Round 2). Conditions: purified 12hLO, xylenol orange hydroperoxide absorbance; activity change, negative = inhibition: at 108 µM (top of the series) unless noted.
Method in brief: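 Purified human 12hLO at 150 nM in 25 mM Hepes, 0.01% Triton X-100, pH 7.0, preincubated 15 min at room temperature with compound. Reaction started with 40 uM arachidonic acid, 30 min at room temperature. Hydroperoxide measured by Fe-xylenol orange, 573/405 nm absorbance ratio.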
% is scaled to controls: 0 for no effect and ±100 for the full control effect; potency is read from the fitted curve at half-maximal effect.

Row | SMILES | activity change, negative = inhibition | Potency
1 | OC(c1ccccn1)(c1ccccn1)c1ccccn1 | inactive: 20.1% | –
2 | COCc1cc(S(=O)c2ccc(Cl)cc2)nc(C)n1 (stereo not drawn) | – | inconclusive: 44.7 µM [inhibitor, partial curve, poor fit]
3 | O=C(O)COCC(=O)NCC1CCCO1 (stereo not drawn) | – | inconclusive: 35.5 µM [inhibitor, partial curve, poor fit]
4 | COC(=O)CCC1(C(=O)OC)c2ccccc2-c2ccccc21 | inactive: -14.3% | –
5 | Cc1cc(C(=O)CSc2nnc(N)s2)c(C)n1-c1c(C)n(C)n(-c2ccccc2)c1=O | – | inconclusive: 3.98 µM [inhibitor, full curve, poor fit]
6 | COc1cccc(-c2onc3ccc(C4(C)OCCO4)cc23)c1 | inactive: -7.79% | –
7 | O=C(Cc1ccccc1)NC1CCN(c2ccc(S(=O)(=O)C(F)(F)F)cc2)CC1 | – | inconclusive: 126 µM [inhibitor, partial curve, poor fit]
8 | Cc1ccc(-c2cc(N)n(Cc3cccc(Cl)c3)n2)cc1 | – | inconclusive: 100 µM [inhibitor, partial curve, poor fit]
9 | O=C(CSc1cccc[n+]1[O-])Nc1cc(S(=O)(=O)N2CCOCC2)ccc1N1CCOCC1 | inactive: -12.8% | –
10 | NC(=O)C1CCCN(CCC(=O)O)C1 (stereo not drawn) | – | inconclusive: 44.7 µM [inhibitor, partial curve, poor fit]
11 | CC1(C)CC(=O)C2=C(C1)c1c(ccc3ccccc13)NC2c1ccco1 (stereo not drawn) | – | inconclusive: 8.91 µM [inhibitor, full curve] and inconclusive: 50.1 µM [inhibitor, partial curve, poor fit]
12 | Cc1cc(C(=O)N2CCCC3(CCNCC3)CC2)c2cnn(C(C)C)c2n1 | – | active: 20 µM
13 | S=C1SCN(CC2CC2)CN1CC1CC1 | – | inconclusive: 56.2 µM [inhibitor, partial curve, poor fit]
14 | CN1CCN(C2CCCCC2NS(=O)(=O)c2ccccc2)CC1 (stereo not drawn) | – | inconclusive: 50.1 µM [inhibitor, partial curve, poor fit]
15 | Cc1ccc2[nH]c(=O)c(CN(Cc3nnnn3Cc3ccccc3)C3CCCC3)cc2c1 | – | inconclusive: 4.47 µM [inhibitor, full curve, poor fit]
16 | CCc1nc2c(OCc3ccccc3C(=O)OC)cccn2c1N(C)C(=O)CC(C)C | – | inconclusive: 44.7 µM [inhibitor, single point]
17 | Cc1ccc2nc(C)c3c(c2c1)N(c1ccc(F)cc1)CC3 | – | inconclusive: 7.08 µM [inhibitor, partial curve, poor fit]
18 | O=C(NCc1ccc2c(c1)OCO2)C(=O)NCC1CCCO1 (stereo not drawn) | – | inconclusive: 35.5 µM [inhibitor, single point]
19 | COc1cccc(-c2nnc(NC(=O)c3ccccc3Br)o2)c1 | inactive: 1.05% | –
20 | COc1cccc2cc(C(=O)NCCN3CCOCC3)c(=O)oc12 | – | inconclusive: 4.47 µM [inhibitor, full curve, poor fit]
21 | Cc1cc(-c2ccnc(-n3ncc(C(=O)NCc4cccnc4)c3C3CC3)n2)c(C)s1 | inactive: 4.52% | –
22 | Cc1nnc2n1CCC(N(C)C(=O)c1cncc(Br)c1)CC2 (stereo not drawn) | inactive: 51.2% | –

Row | SMILES | activity change, negative = inhibition | Potency
23 | COc1ccc2[nH]c(=S)cc(C)c2c1 | – | inconclusive: 39.8 µM [inhibitor, partial curve, poor fit]
24 | CCOC(=O)c1sc2ccccc2c1S(=O)(=O)N1CCN(c2ccccc2F)CC1 | – | inconclusive: 50.1 µM [inhibitor, partial curve, poor fit]
25 | COc1ccc(N2Cc3cccc(C(=O)Nc4ccc(C)cc4)c3C2=O)cc1 | – | inconclusive: 70.8 µM [inhibitor, partial curve, poor fit]
26 | Cc1cccnc1CN(C)c1cc(C2CC(O)C2)ncn1 (stereo not drawn) | – | inconclusive: 89.1 µM [inhibitor, single point]
27 | O=S(=O)(c1ccc2c(c1)OCCO2)N1CCC(n2nnc3cc(C(F)(F)F)ccc32)CC1 | inactive: 0% | –
28 | O=C(NC[C@H]1O[C@@H](CO)[C@@H](O)[C@H]1N1CCN(c2cccc(C(F)(F)F)c2)CC1)c1cccs1 | – | inconclusive: 12.6 µM [inhibitor, full curve]
29 | O=C(Nc1ccccc1)c1oc2ccccc2c1NC(=O)c1nn(-c2cccc(Cl)c2)ccc1=O | inactive: 1.11% | –
30 | CSc1cccc(NC(=O)CCn2ccn3nc4c(c3c2=O)CCCC4)c1 | inactive: -29% | –
31 | O=C(c1ccc(F)cc1)C1CCN(Cc2ccccc2F)CC1 | inactive: -2.71% | –
32 | CN(C)CC(O)COc1ccc(NC(=O)Nc2ccccc2F)cc1 (stereo not drawn) | inactive: 6.52% | –
33 | O=C(Nc1ccc(Cl)cc1)c1c2c(nc3ccccc13)CCCC2 | – | inconclusive: 56.2 µM [inhibitor, partial curve, poor fit]
34 | Cc1cc(NC(=O)Cn2ccsc2=N)c([N+](=O)[O-])cc1C | – | inconclusive: 35.5 µM [inhibitor, partial curve]
35 | Cc1ccc(-n2c(COc3cccc(C)c3)n[nH]c2=S)cc1 | – | inconclusive: 50.1 µM [inhibitor, partial curve, poor fit]
36 | O=C(c1ccc(OC2CCN(Cc3ccccn3)CC2)cc1)N1CCCC(O)C1 (stereo not drawn) | – | inconclusive: 100 µM [inhibitor, single point]
37 | Cc1ccc(-c2csc(Nc3ccc(S(=O)(=O)Nc4nc(C)cc(C)n4)cc3)n2)cc1 | – | inconclusive: 100 µM [inhibitor, partial curve, poor fit]
38 | CCN(CC)Cc1ccc(NC(=O)c2sc3cc(Cl)ccc3c2Cl)cc1 | – | inconclusive: 89.1 µM [inhibitor, partial curve, poor fit]
39 | O=C(CSc1nnc(-c2ccccc2)o1)NC1CCS(=O)(=O)C1 (stereo not drawn) | inactive: -7.1% | –
40 | O=C(C=C1CCN(c2ncc(C(F)(F)F)cc2Cl)CC1)NNC(=O)Nc1ccccc1 | inactive: 0% | –
41 | CCN(CC)CCN(C(=O)c1ccc2c(c1)CCCC2)c1nc2c(OC)cccc2s1 | – | inconclusive: 44.7 µM [inhibitor, partial curve, poor fit]
42 | COc1ccc([C@H]2CC(=O)C=C(c3ccc(F)nc3)C2)cc1OC | – | inconclusive: 100 µM [inhibitor, single point]
43 | COc1ccc2oc(=O)c(-c3nc(-c4nonc4N)no3)cc2c1 | – | inconclusive: 39.8 µM [inhibitor, partial curve, poor fit]
